From PubChem BioAssay AID256 (DTP/NCI, 2004)
The list does not hold the whole screen: it gathers tests that were run many times, whatever their T/C, doses with no T/C, and many T/C values between a quarter and a half above the control. Further doses and runs are listed elsewhere. T/C is the treated group as % of the vehicle group. Some doses have a count of surviving animals in place of a T/C: the source holds a T/C of zero for them, seemingly a mark for toxic or unscored doses. Some survivor counts are full or nearly so, which does not show that the dose was tolerated: the source hardly ever lists a survival T/C far under the control, and the zero likely stands for such cases as well. Counts of survivors are from the toxicity check (mostly the fifth day) where no day follows; animals may have died later. Schedules are NCI's codes, taken here to give the interval after Q, in days (D) or hours (H), and the number of doses after X. Where survival is the endpoint, this PubChem deposit counts one and a half times the control or more as active, and values a quarter to a half above the control carry no call in these data; other NCI protocols may use other cut-offs.

Tested on: CD2F1 mice, L1210 leukemia ip, survival T/C
Experiment: NCI In Vivo Anticancer Drug Screen. Data for tumor model L1210 Leukemia (intraperitoneal) in CD2F1 (CDF1) mice
Conditions: higher T/C = longer survival
Summary of the method: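 Transplantable tumor in mice; compound-treated vs vehicle-treated groups. Read-out = treated/control ratio of the measured endpoint.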

[1] = T/C endpoint: mean survival time, dose: 200.0 mg/kg/injection, schedule: Q04DX003 (ip), vehicle: DMSO
[2] = T/C endpoint: mean survival time, dose: 400.0 mg/kg/injection, schedule: Q04DX003 (ip), vehicle: DMSO
[3] = T/C endpoint: mean survival time, dose: 100.0 mg/kg/injection, schedule: Q04DX003 (ip), vehicle: saline sonified
[4] = T/C endpoint: mean survival time, dose: 400.0 mg/kg/injection, schedule: Q04DX003 (ip), vehicle: saline sonified
[5] = T/C endpoint: mean survival time, dose: 100.0 mg/kg/injection, schedule: Q04DX003 (ip), vehicle: saline with Tween-80
[6] = T/C endpoint: mean survival time, dose: 200.0 mg/kg/injection, schedule: Q04DX003 (ip), vehicle: saline with Tween-80

Compound: O=C(Nc1cccc(F)c1)c1c(O)[nH]c(=S)[nH]c1=O
- T/C (T/C endpoint: median survival time, dose: 100.0 mg/kg/injection, schedule: Q01DX009 (ip), vehicle: saline with Tween-80): 128 % of control
- survivor count (T/C endpoint: median survival time, dose: 200.0 mg/kg/injection, schedule: Q01DX009 (ip), vehicle: saline with Tween-80): 3 of 5

Compound: COc1ccc2c(c1O)-c1cc(O)cc3c1C(C2)N(CCCl)CC3 (stereo not drawn)
- survivor count (T/C endpoint: mean survival time, dose: 50.0 mg/kg/injection, schedule: Q04DX003 (ip), vehicle: DMSO): 5 of 6
- survivor count (T/C endpoint: mean survival time, dose: 100.0 mg/kg/injection, schedule: Q04DX003 (ip), vehicle: DMSO): 4 of 6
- survivor count [1]: 0 of 6
- survivor count [2]: 0 of 6

Compound: c1ccc(-c2cc3ccccc3c(-c3ccccc3)c2-c2ccccc2)cc1
- survivor count (T/C endpoint: mean survival time, dose: 75.0 mg/kg/injection, schedule: Q01DX001 (ip), vehicle: other): 6 of 6

Compound: CC(=O)Nc1ccc(S(=O)(=O)OCCC#N)cc1
- survivor count (T/C endpoint: mean survival time, dose: 400.0 mg/kg/injection, schedule: Q01DX009 (ip), vehicle: saline with Tween-80): 3 of 6

Compound: COC1=CC=C2[C@@H]3Cc4ccc(OC)c5c4[C@]2(CCN3CCCl)C1O5 (stereo partly drawn)
- survivor count [1]: 1 of 6
- survivor count [2]: 0 of 6

Compound: CC1(C)N=C(N)N=C(N)N1c1cccc(CCCCc2ccc(Cl)c(S(=O)(=O)F)c2)c1
- survivor count [3]: 6 of 6
- survivor count [4]: 2 of 6

Compound: NC(=O)CNC1=C(N2CC2)C(=O)C(NCC(N)=O)=C(N2CC2)C1=O
- T/C (T/C endpoint: mean survival time, dose: 5.0 mg/kg/injection, schedule: Q01DX009 (ip), vehicle: saline): 140 % of control
- survivor count (T/C endpoint: mean survival time, dose: 15.0 mg/kg/injection, schedule: Q01DX009 (ip), vehicle: saline): 6 of 6

Compound: O=C1CC[C@@H]2CCCC[C@@H]2C1
- survivor count [5]: 2 of 6
- survivor count [6]: 1 of 6

Compound: CC1(C)N=C(N)N=C(N)N1c1cccc(CCCCc2cccc(S(=O)(=O)F)c2)c1
- survivor count [3]: 1 of 6
- survivor count (T/C endpoint: mean survival time, dose: 200.0 mg/kg/injection, schedule: Q04DX003 (ip), vehicle: saline sonified): 5 of 6
- survivor count [4]: 0 of 6

Compound: O=C1NC2(CCCCC2)C(=O)N1CCN(CCCl)CCCl
- T/C (T/C endpoint: median survival time, dose: 4.0 mg/kg/injection, schedule: Q01DX009 (ip), vehicle: Klucel (hydroxypropylcellulose) (HPC), evaluated on day 45): 143 % of control
- T/C (T/C endpoint: median survival time, dose: 4.0 mg/kg/injection, schedule: Q01DX009 (ip), vehicle: Klucel (hydroxypropylcellulose) (HPC), evaluated on day 60): 134 % of control
- T/C (T/C endpoint: median survival time, dose: 6.0 mg/kg/injection, schedule: Q01DX009 (ip), vehicle: Klucel (hydroxypropylcellulose) (HPC)): 140 % of control
- survivor count (T/C endpoint: median survival time, dose: 16.0 mg/kg/injection, schedule: Q03HX016 (ip), vehicle: Klucel (hydroxypropylcellulose) (HPC)): 6 of 10
- T/C (T/C endpoint: median survival time, dose: 32.0 mg/kg/injection, schedule: Q01DX009 (ip), vehicle: Klucel (hydroxypropylcellulose) (HPC)): 142 % of control
- survivor count (T/C endpoint: median survival time, dose: 32.0 mg/kg/injection, schedule: Q03HX008 (ip), vehicle: Klucel (hydroxypropylcellulose) (HPC)): 3 of 10
- T/C (T/C endpoint: median survival time, dose: 64.0 mg/kg/injection, schedule: Q04DX003 (ip), vehicle: Klucel (hydroxypropylcellulose) (HPC)): 144 % of control
- T/C (T/C endpoint: median survival time, dose: 128.0 mg/kg/injection, schedule: Q01DX001 (ip), vehicle: Klucel (hydroxypropylcellulose) (HPC)): 126 % of control

Compound: C[C@H]1CP(c2ccccc2)(c2ccccc2)(c2ccccc2)O[C@@]1(C(=O)c1ccccc1)c1ccccc1
- survivor count (T/C endpoint: mean survival time, dose: 100.0 mg/kg/injection, schedule: Q01DX001 (ip), vehicle: saline with Tween-80): 3 of 6
- survivor count (T/C endpoint: mean survival time, dose: 400.0 mg/kg/injection, schedule: Q01DX001 (ip), vehicle: saline with Tween-80): 0 of 6

Compound: O=c1ccccn1CCc1ccccc1
- survivor count [5]: 4 of 6
- survivor count [6]: 0 of 6
- survivor count (T/C endpoint: mean survival time, dose: 400.0 mg/kg/injection, schedule: Q04DX003 (ip), vehicle: saline with Tween-80): 0 of 6

Compound: CC(=O)NC1CC(n2cnc3c(=O)[nH]c(N)nc32)OC1C(C)O (stereo not drawn)
- survivor count (T/C endpoint: median survival time, dose: 200.0 mg/kg/injection, schedule: Q01DX005 (ip), vehicle: distilled water + Tween-80): 1 of 6
